In paper doi:10.1101/2023.09.06.556483:
Results are given in words; binding and its absence hold for the method and conditions named.

Target: PICLN (Arabidopsis) (Arabidopsis thaliana)
Assay: two-hybrid

binding: no binding
B1: AtPRMT7 (enzyme, UniProt Q944R7 1-724)
chain: MSPLSSLPPKTFISSFHCHSVTRLRRSVTARTMSSQSSQRVFQLRQDPLTGNSEWIVIEDNDQPGTSTDGLLATTSYLDMLNDSRRNIAYRLAIEKTITEPCHVLDIGAGTGLLSMMAVRAMRGDSKGMVTACESYLPMVKLMRKVMHKNGMTKNINLINKRSDELKVGSEDIASRADVLVSEILDSELLGEGLIPSLQHAHDMLLVDNPKTVPYRATTYCQLVESTFLCNLQDLRNNEAKTSDGVRLVPPGLESLFGIKSQQYSMHVDAIEKEIKLLSEPVKIFEFDFWKRPESNGELDVHIEAKTTGSVHAIISWWVLQLDSEGTIFYSTAPRWIDSNSEIGVRDWCDHWKQCVWFTPGTGVSISKGEKVHLHASHTCTNILYNLKKTQSLTHERTHFPLSTGDLHLTLPPERVAIYGDSIYRQSLFEATRKALQGKSYPQCLVIDDSLLLPLMALHISNRSRVLSLSPGLQENAARYFEAIADSNGFSKDRFEYFRDGKTNLAKAYPGKIDLLIGEPYYSGLENGLPWQNLRFWKDRTLLDSVLSEDAVVMPYKGVLRGCAMYLPDLWKSRCCLGSVEGFDHTLVNTTLGGCGDLPSGKDSPCLPFFIWQCGETKILSKEFTVMEFDFSKPITGPCSGEVQIEFIKPGVCHGIALWMDWVMDEENSTVISTGPDDKYWKQGVKLLGKPVTVRMEGPSSSIGIQASLDLSSNSELIVTHTIS
